The list is a part of this screen's results and no random one: it is rich in T/C values a quarter to a half above the control, in often repeated tests (any T/C) and in doses without a T/C. Other doses and runs of a compound stand elsewhere. T/C is the treated group as % of the vehicle group. Some doses have a count of surviving animals in place of a T/C: the source files T/C as zero there, which appears to mark a toxic dose or a test without result, not a measured value. Some survivor counts are full or nearly so, which does not show that the dose was tolerated: survival well below the control is almost never listed, so the zero probably covers shortened survival too. Counts of survivors are from the toxicity check (mostly the fifth day) where no day follows; animals may have died later. Schedule codes are those of the source, read here as Q, the interval in days (D) or hours (H), X, the number of doses. Some entries hold several experiments; the results are listed from low to high. Where survival is the endpoint, the PubChem record calls one and a half times the control and up active, and a quarter to a half above the control has no call in these data; cut-offs in other NCI protocols can differ.
Test system: P388 leukemia ip, CD2F1 mice, survival T/C
Assay: NCI In Vivo Anticancer Drug Screen. Data for tumor model P388 Leukemia (intraperitoneal) in CD2F1 (CDF1) mice
Settings: T/C endpoint: median survival time, higher T/C = longer survival
[1] = dose: 400.0 mg/kg/injection, schedule: Q04DX003 (ip), vehicle: saline with Tween-80
[2] = dose: 200.0 mg/kg/injection, schedule: Q01DX005 (ip), vehicle: Klucel (hydroxypropylcellulose) (HPC)
[3] = dose: 100.0 mg/kg/injection, schedule: Q01DX005 (ip), vehicle: saline
[4] = dose: 200.0 mg/kg/injection, schedule: Q01DX005 (ip), vehicle: saline
[5] = dose: 240.0 mg/kg/injection, schedule: Q01DX005 (ip), vehicle: saline with Tween-80

Question: With `Nc1ccc2ncccc2c1[N+](=O)[O-]` as the compound, how does the survivor count [1] read?
Answer: 1 of 6

Question: With `CC(C)=CCC(OC(=O)C=C(C)C)C1=CC(=O)c2c(O)ccc(O)c2C1=O` (stereo unspecified) as the compound, how does the survivor count (dose: 25.0 mg/kg/injection, schedule: Q01DX009 (ip), vehicle: water) read?
Answer: 1 of 6

Question: And the survivor count (dose: 40.0 mg/kg/injection, schedule: Q01DX009 (ip), vehicle: saline with Tween-80)?
Answer: 4 of 6

Question: What about the survivor count (dose: 50.0 mg/kg/injection, schedule: Q01DX009 (ip), vehicle: water) of the same compound?
Answer: 1 of 6

Question: How did the survivor count (dose: 12.5 mg/kg/injection, schedule: Q01DX005 (ip), vehicle: saline with Tween-80) turn out when `O=C(CCCN1CCC(C(O)c2ccc(F)cc2)CC1)c1ccc(F)cc1` (stereo unspecified) was run?
Answer: 0 of 5

Question: And the survivor count (dose: 25.0 mg/kg/injection, schedule: Q01DX005 (ip), vehicle: saline with Tween-80)?
Answer: 0 of 5

Question: What about the survivor count (dose: 50.0 mg/kg/injection, schedule: Q01DX005 (ip), vehicle: saline with Tween-80) of the same compound?
Answer: 0 of 5

Question: And the survivor count (dose: 100.0 mg/kg/injection, schedule: Q01DX005 (ip), vehicle: saline with Tween-80)?
Answer: 2 of 5

Question: What about the survivor count (dose: 200.0 mg/kg/injection, schedule: Q01DX005 (ip), vehicle: saline with Tween-80) of the same compound?
Answer: 0 of 5

Question: For `Cc1ccc(S(=O)(=O)Cl)cc1Cl`, which survivor count (dose: 100.0 mg/kg/injection, schedule: Q01DX009 (ip), vehicle: saline with Tween-80) is on record?
Answer: 3 of 6

Question: What about the survivor count (dose: 200.0 mg/kg/injection, schedule: Q01DX009 (ip), vehicle: saline with Tween-80) of the same compound?
Answer: 4 of 6

Question: And the survivor count (dose: 400.0 mg/kg/injection, schedule: Q01DX009 (ip), vehicle: saline with Tween-80)?
Answer: 0 of 6

Question: Which results are given for `COC(=O)C1(CC(=O)c2ccc(N3CCN(c4ccc(C(=O)CC5(C(=O)OC)NC(=S)NC(=O)C5C#N)cc4)CC3)cc2)NC(=S)NC(=O)C1C#N` (stereo unspecified)?
Answer: survivor count (dose: 60.0 mg/kg/injection, schedule: Q01DX005 (ip), vehicle: Klucel (hydroxypropylcellulose) (HPC)): 6 of 6; survivor count (dose: 120.0 mg/kg/injection, schedule: Q01DX005 (ip), vehicle: Klucel (hydroxypropylcellulose) (HPC)): 6 of 6; survivor count (dose: 240.0 mg/kg/injection, schedule: Q01DX005 (ip), vehicle: Klucel (hydroxypropylcellulose) (HPC)): 6 of 6

Question: For `COC(=O)NC1C(C)OC(OC2C/C=C(/C)C3C=CC4C(OC5CC(OC6CC(O)C(OC7CC(O)C(OC)C(C)O7)C(C)O6)C(O)C(C)O5)C(C)CC(C)C4C3(C)/C(O)=C3\C(=O)OC4(CC(C)C(CO)=CC4/C=C\2C)C3=O)CC1(C)[N+](=O)[O-]` (stereo unspecified), which T/C (dose: 25.0 mg/kg/injection, schedule: Q01DX005 (ip), vehicle: Klucel (hydroxypropylcellulose) (HPC)) is on record?
Answer: 126 % of control

Question: And the T/C (dose: 100.0 mg/kg/injection, schedule: Q01DX005 (ip), vehicle: Klucel (hydroxypropylcellulose) (HPC))?
Answer: 141 and 149 % of control

Question: What about the survivor count [2] of the same compound?
Answer: 0 of 6 and 3 of 6

Question: What about the survivor count (dose: 400.0 mg/kg/injection, schedule: Q01DX005 (ip), vehicle: Klucel (hydroxypropylcellulose) (HPC)) of the same compound?
Answer: 0 of 6

Question: Which results are given for `CCOC(=O)[C]1([Bi]([CH3])[CH3])N=NC(C(=O)OC)=C1C(=O)OC` (stereo unspecified)?
Answer: survivor count (dose: 100.0 mg/kg/injection, schedule: Q04DX003 (ip), vehicle: saline): 1 of 6; survivor count (dose: 200.0 mg/kg/injection, schedule: Q04DX003 (ip), vehicle: saline with Tween-80): 0 of 6; survivor count [1]: 0 of 6

Question: Which survivor count [3] does the source give for `CC1CCC(C(C)C)C(OC(=O)c2ccc[n+](C)c2)C1` (stereo unspecified) here?
Answer: 3 of 6

Question: What about the survivor count [4] of the same compound?
Answer: 0 of 6

Question: How did the survivor count (dose: 400.0 mg/kg/injection, schedule: Q01DX001 (ip), vehicle: saline with Tween-80) turn out when `C[Si](C)(C)CSCC#N` was run?
Answer: 0 of 6

Question: How did the survivor count (dose: 400.0 mg/kg/injection, schedule: Q01DX001 (ip), vehicle: Klucel (hydroxypropylcellulose) (HPC)) turn out when `COC1=CC(=O)c2cc3ccc(OC)c(N)c3nc2C1=O` was run?
Answer: 3 of 6

Question: For `O=C(Cc1nc2ccccc2s1)Nc1ccc2ccccc2c1`, which survivor count [5] is on record?
Answer: 2 of 6

Question: How did the survivor count [5] turn out when `COC(=O)C1CCC(/C(C#N)=C2/CCC(C(=O)OC)[N-]2)=N1.COC(=O)C1CCC(/C(C#N)=C2/CCC(C(=O)OC)[N-]2)=N1.[Cu+2]` (stereo unspecified) was run?
Answer: 0 of 6

Question: With `CCCCCC(=O)c1c(O)cc2c(c1O)C(=O)c1c(O)cc(OC)cc1C2=O` as the compound, how does the survivor count (dose: 25.0 mg/kg/injection, schedule: Q01DX009 (ip), vehicle: saline with Tween-80) read?
Answer: 3 of 3

Question: `CO[C@@H]1C2=CC=CC=C[C@H]2n2c(=O)n(-c3ccccc3)c(=O)n21` was tested. Which survivor count [2] did it give?
Answer: 5 of 5

Question: `O=C(O)CCSSCCCCS(=O)O` was tested. Which T/C (dose: 50.0 mg/kg/injection, schedule: Q01DX005 (ip), vehicle: saline) did it give?
Answer: 126 % of control

Question: And the T/C [3]?
Answer: 131 % of control

Question: What about the survivor count [4] of the same compound?
Answer: 0 of 6

Question: With `COc1ccc(OC)c(N(CCN2C(=O)c3ccccc3C2=O)C(=O)C2CCC(=O)C2C)c1` (stereo unspecified) as the compound, how does the survivor count [5] read?
Answer: 6 of 6

Question: Which T/C (dose: 6.25 mg/kg/injection, schedule: Q01DX009 (ip), vehicle: suspension in saline) does the source give for `COc1cc(N(CCCl)CCCl)c(OC)cc1C=Nc1cccc(Br)c1` here?
Answer: 129 % of control

Question: And the T/C (dose: 12.5 mg/kg/injection, schedule: Q01DX009 (ip), vehicle: saline)?
Answer: 141 % of control

Source: PubChem BioAssay AID330 (DTP/NCI, 2004)
